Patent US7399319B2, “Dyeing composition comprising a dye chosen from styryl and imine dyes and methods for dyeing keratin fibers” (L'Oreal S.A., priority 2005, dated 2008)

Legend:
[1] = Dyeing of hair locks, colour measured in the CIE L*a*b* system; details: natural lock, 5 g per 1 g of hair, room temperature, 30 minutes; for DEa*b*: dye 3 × 10^−3 mol %, dyed vs non-dyed lock
[2] = as above; details: permanent-waved lock, 5 g per 1 g of hair, room temperature, 30 minutes; for DEa*b*: dye 3 × 10^−3 mol %, dyed vs non-dyed lock

SMILES	Color [1]	DEa*b* [1]	Color [2]	DEa*b* [2]
CN(C)c1ccc(C=CC=CC23OCCN2c2ccccc2C3(C)C)cc1 (stereo not shown) [Dye 2]	blue	54	blue	57
CN(C)c1ccc(C=CC23OCCN2c2ccc(S(C)(=O)=O)cc2C3(C)C)cc1 (stereo not shown) [Dye 3]	violet	65	violet	71
CCn1c2ccccc2c2cc(C=CC34OCCN3c3ccccc3C4(C)C)ccc21 (stereo not shown) [Dye 5]	red	42	red	43
CN(C)c1ccc(C=CC23OCCN2c2ccc(-c4cccc[n+]4C)cc2C3(C)C)cc1 (stereo not shown)	chromatic violet	–	chromatic violet	–
CN(C)c1ccc(C=CC23OCCN2c2ccccc2C3(C)C)cc1 (stereo not shown) [Dye 1]	fuchsia	57	fuchsia	57
CC(=O)Nc1ccc(C=CC23OCCN2c2ccccc2C3(C)C)cc1 (stereo not shown) [Dye 6]	yellow	42	yellow	47
